Square brackets hold non-standard residues; d marks the D form. * marks the point of attachment. Met(O) = CS(=O)CC[C@H](N)C(=O)O; ClZ = O=C(OCc1ccccc1Cl)*; Boc = CC(C)(C)OC(=O)*; OBn = c1ccc(CO*)cc1; Bn = c1ccc(C*)cc1
Test: general procedure: solution-phase peptide synthesis; EDC hydrochloride with HOBt.H2O or HOOBt

Substance | crude purity (method not given) (late stage modification step) [%] | crude purity (method not given) (coupling step) [%]
Boc-Glu(OBzl)-Ala-Val-Arg(Z)2-Leu-OH | 96.5 | –
Boc-His(BOM)-Gly-Glu(OBzl)-Gly-Thr(Bzl)-Phe-Thr(Bzl)-Ser(Bzl)-Asp(OBzl)-Leu-O(4-NBn) | – | 93.5
Boc-S(Bn)K(ClZ)Q[Met(O)]E(OBn)E(OBn)-OH | 94.6 | –
